# Measured values as given in PubChem BioAssay (EPA / NIEHS).
# Chains of the proteins cited; added tags and fusions are not shown. Lines headed by an entry give the natural chain unless they say otherwise; changes in a name come on top.
# UniProt P41143, whole entry, looked up: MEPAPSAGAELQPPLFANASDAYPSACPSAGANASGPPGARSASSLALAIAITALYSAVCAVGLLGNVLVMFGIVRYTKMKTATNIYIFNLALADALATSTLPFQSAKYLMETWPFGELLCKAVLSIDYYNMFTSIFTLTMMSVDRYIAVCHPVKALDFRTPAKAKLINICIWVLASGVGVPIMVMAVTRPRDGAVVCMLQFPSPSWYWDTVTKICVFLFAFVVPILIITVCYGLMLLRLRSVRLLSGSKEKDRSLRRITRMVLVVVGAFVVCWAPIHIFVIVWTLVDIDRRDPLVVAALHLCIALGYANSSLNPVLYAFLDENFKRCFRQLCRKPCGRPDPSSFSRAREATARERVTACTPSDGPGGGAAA
# UniProt P47900: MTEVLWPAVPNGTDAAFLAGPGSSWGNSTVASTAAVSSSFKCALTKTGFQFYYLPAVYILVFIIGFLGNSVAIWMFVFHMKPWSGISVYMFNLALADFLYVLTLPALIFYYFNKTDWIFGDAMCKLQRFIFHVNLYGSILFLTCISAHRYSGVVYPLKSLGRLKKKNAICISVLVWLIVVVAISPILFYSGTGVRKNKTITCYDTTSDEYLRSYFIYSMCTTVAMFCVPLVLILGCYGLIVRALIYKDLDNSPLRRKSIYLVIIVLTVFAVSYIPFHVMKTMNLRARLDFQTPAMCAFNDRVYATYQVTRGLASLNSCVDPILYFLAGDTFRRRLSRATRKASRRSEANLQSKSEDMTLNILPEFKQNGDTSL
# UniProt P21731: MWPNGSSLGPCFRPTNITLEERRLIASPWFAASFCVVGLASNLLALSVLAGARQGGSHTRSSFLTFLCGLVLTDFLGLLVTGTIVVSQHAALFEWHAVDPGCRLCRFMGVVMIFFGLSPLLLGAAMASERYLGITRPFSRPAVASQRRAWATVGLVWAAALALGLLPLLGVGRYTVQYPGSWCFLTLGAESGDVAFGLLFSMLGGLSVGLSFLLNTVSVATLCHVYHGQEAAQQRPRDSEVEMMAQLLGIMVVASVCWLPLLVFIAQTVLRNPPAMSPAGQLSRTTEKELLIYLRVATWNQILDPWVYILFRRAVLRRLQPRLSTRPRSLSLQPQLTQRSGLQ
# UniProt P37288, whole entry, looked up: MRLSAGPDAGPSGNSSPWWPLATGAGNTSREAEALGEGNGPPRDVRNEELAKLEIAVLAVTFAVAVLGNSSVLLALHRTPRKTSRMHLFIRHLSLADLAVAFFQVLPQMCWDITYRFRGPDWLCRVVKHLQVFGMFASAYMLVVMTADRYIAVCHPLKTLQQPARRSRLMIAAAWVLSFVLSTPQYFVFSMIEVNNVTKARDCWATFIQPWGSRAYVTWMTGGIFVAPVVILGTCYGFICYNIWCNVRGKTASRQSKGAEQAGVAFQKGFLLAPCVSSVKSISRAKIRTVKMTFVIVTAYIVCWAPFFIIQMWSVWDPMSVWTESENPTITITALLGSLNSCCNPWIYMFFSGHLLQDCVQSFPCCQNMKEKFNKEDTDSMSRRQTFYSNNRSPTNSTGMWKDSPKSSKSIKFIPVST
# UniProt P35372, whole entry, looked up: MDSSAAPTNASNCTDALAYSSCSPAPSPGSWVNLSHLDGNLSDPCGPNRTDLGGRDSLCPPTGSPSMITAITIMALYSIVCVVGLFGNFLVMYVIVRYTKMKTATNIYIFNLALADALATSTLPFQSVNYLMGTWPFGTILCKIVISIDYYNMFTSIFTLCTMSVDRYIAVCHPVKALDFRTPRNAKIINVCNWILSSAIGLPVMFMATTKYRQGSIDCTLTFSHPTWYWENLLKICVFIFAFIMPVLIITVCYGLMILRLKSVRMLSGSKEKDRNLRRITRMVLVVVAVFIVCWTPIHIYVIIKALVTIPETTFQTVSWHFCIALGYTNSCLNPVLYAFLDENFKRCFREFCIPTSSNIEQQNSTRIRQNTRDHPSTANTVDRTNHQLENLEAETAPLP
# The inconclusive results got no clear call from the source; some entries with a clear call stand among them for comparison. Potencies beside an inconclusive call are fits to weak or partial responses and may not hold up. Calls of active or inactive are those of the source. The calls were made as follows: active = hit-call score of the fitted dose curve at least 0.9, where 1 is the maximum; inconclusive = response in the unintended direction; inactive = score below 0.9.
# Target: human Opioid Receptor Delta 1 (Opiate D1), OPRD1 (gene 4985) (UniProt P41143)
# Experiment: NVS_GPCR_hOpiate_D1: NovaScreen (NVS) G Protein-Coupled Receptor Assay for human Opioid Receptor Delta 1 (Opiate D1) (AID 2283280)
# Procedure: (§1) NVS_GPCR_hOpiate_D1 is a biochemical, single-readout assay that uses extracted gene-proteins from CHO in a cell-free assay. Measurements were taken 1 hour after chemical dosing in a 96-well plate.NVS_GPCR_hOpiate_D1 is one of one assay component(s) measured or calculated from the NVS_GPCR_hOpiate_D1 assay. It is designed to make measurements of radioligand binding, a form of binding reporter, as detected with scintillation counting signals by Filter-based radiodetection technology.Data from the assay component NVS_GPCR_hOpiate_D1 was analyzed into 1 assay endpoint. This assay endpoint, NVS_GPCR_hOpiate_D1, was analyzed in the positive analysis fitting direction relative to DMSO as the negative control and baseline of activity. Using a type of binding reporter, loss-of-signal activity can be used to understand changes in the binding as they relate to the gene OPRD1. Furthermore, this assay endpoint can be referred to as a primary readout, because the performed assay has only produced 1 assay endpoint. To generalize the intended target to other relatable targets, this assay endpoint is annotated to the gpcr intended target family, where the subfamily is rhodopsin-like receptor.
# Binding assays used specific radioligands (tritiated, iodinated) with non-radioactive competitive displacement ligands in agonist or antagonist protocols (as indicated) and various reference compounds and inhibitors to titrate specific binding to receptors and transporters. Most enzyme assays (CYPs, kinases, phosphatases, proteases, HDACs) used recombinant protein and specific substrates (fluorescence mostly, some colorimetric and radioactive) and inhibitors, followed by a biochemical separation of substrate and product. All assays for the biochemical HTS were initially run in duplicate at a single concentration (10 uM for CYP450 assays and 25 uM for all others). […] Each assay was run with positive and negative controls, and concurrent controls on every plate. The follow-up (secondary) screen tested active chemical-pairs in concentration series, as well as a few additional assays not tested in the primary screen, some selected negative inactives, and several cases re-run in the concentration series for confirmatory purposes.
SMILES,outcome,AC50
NC(=O)N1C(=O)C(C(=O)c2cc(Cl)cs2)c2cc(F)c(Cl)cc21 (stereo unspecified),inactive,–
O=C1OC(c2ccc(O)cc2)(c2ccc(O)cc2)c2ccccc21,–,active: 6.64 µM
CCCCCCCCCCCCc1ccccc1S(=O)(=O)O,–,active: 7.58 µM
CCn1nc(C)c2c1C(=O)NCC(c1ccc(O)cc1)=N2,–,inconclusive: 25 µM

# Target: human Purinergic Receptor P2Y, P2RY1 (gene 5028) (UniProt P47900)
# Experiment: NVS_GPCR_hPY2: NovaScreen (NVS) G Protein-Coupled Receptor Assay for human Purinergic Receptor P2Y (AID 2283281)
# Procedure: as §1, with “NVS_GPCR_hPY2” for “NVS_GPCR_hOpiate_D1”, “U937” for “CHO”, “48-well plate.NVS_GPCR_hPY2” for “96-well plate.NVS_GPCR_hOpiate_D1”, “NVS_GPCR_hPY2,” for “NVS_GPCR_hOpiate_D1,”, “P2RY1.” for “OPRD1.”
# Binding assays used specific radioligands (tritiated, iodinated) with non-radioactive competitive displacement ligands in agonist or antagonist protocols (as indicated) and various reference compounds and inhibitors to titrate specific binding to receptors and transporters. Most enzyme assays (CYPs, kinases, phosphatases, proteases, HDACs) used recombinant protein and specific substrates (fluorescence mostly, some colorimetric and radioactive) and inhibitors, followed by a biochemical separation of substrate and product. All assays for the biochemical HTS were initially run in duplicate at a single concentration (10 uM for CYP450 assays and 25 uM for all others). Assay-chemical combinations meeting a pre-defined threshold (e.g., 30% inhibition and other criteria defined below) were then run in singleton concentration-response format with maximum concentration of 20 uM for CYPs and 50 uM for all others. Each assay was run with positive and negative controls, and concurrent controls on every plate. The follow-up (secondary) screen tested active chemical-pairs in concentration series, as well as a few additional assays not tested in the primary screen, some selected negative inactives, and several cases re-run in the concentration series for confirmatory purposes.
row,SMILES,AC50
1,OCC(CO)(CBr)CBr,inconclusive: 25 µM
2,Nc1nc(Cl)nc2c1ncn2[C@H]1C[C@H](O)[C@@H](CO)O1,inconclusive: 25 µM
3,CCCCC(CC)COC(=O)CC(C(=O)OCC(CC)CCCC)S(=O)(=O)O (stereo unspecified),active: 7.46 µM

# Target: human Thromboxane A2 Receptor (TXA2), TBXA2R (gene 6915) (UniProt P21731)
# Experiment: NVS_GPCR_hTXA2: NovaScreen (NVS) G Protein-Coupled Receptor Assay for human Thromboxane A2 Receptor (TXA2) (AID 2283282);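 also: actives reduce bound radioligand signal relative to DMSO baseline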
# Method in brief: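 Human platelet membranes tested for radioligand displacement by filtration and scintillation counting 1 h post-dose. Screened in duplicate at 25 uM; activity fitted as signal loss relative to DMSO.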
SMILES,AC50,outcome
CN(C)c1ccc(N=NS(=O)(=O)O)cc1,inconclusive: 1.58 µM,–
CCOCN(C(=O)CS(=O)(=O)O)c1c(C)cccc1CC,–,inactive
Brc1cc(Br)cc(Br)c1,inconclusive: 0.131 µM,–
O=C1OC2(c3cc(Br)c(O)c(Br)c3Oc3c2cc(Br)c(O)c3Br)c2c(Cl)c(Cl)c(Cl)c(Cl)c21,inconclusive: 0.0151 µM,–

# Target: human Vasopressin 1A Receptor (V1A), AVPR1A (gene 552) (UniProt P37288)
# Experiment: NVS_GPCR_hV1A: NovaScreen (NVS) G Protein-Coupled Receptor Assay for human Vasopressin 1A Receptor (V1A) (AID 2283284)
# Method in brief: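 Cell-free radioligand displacement on human platelet preparations, 1.5 h incubation, filter-based scintillation counting. Chemicals first tested in duplicate at 25 uM; actives then run in concentration-response up to 50 uM, loss of signal fitted against DMSO.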
SMILES,AC50,outcome
Cc1ccc(O)cc1,active: 22.1 µM,–
CCCCC(CC)COC(=O)CCCCCCCCC(=O)OCC(CC)CCCC (stereo unspecified),inconclusive: 25 µM,–
CCCOc1sc(C(=O)N2CCC(c3cc(CN)ccc3F)CC2)c(C)c1Br,–,inactive
Cc1occc1C(=O)Nc1ccc(C(=O)N2CCC(F)(F)/C(=C\C(=O)N3CCC(N4CCCCC4)CC3)c3ccccc32)cc1,active: 0.00237 µM,–
c1ccc(C[n+]2cccc3ccccc32)cc1,–,inactive
CS(=O)(=O)c1ccc([C@@H](CC2CCCC2)C(=O)Nc2cnccn2)cc1Cl,–,inactive

# System: 5-hydroxytryptamine receptor 2C (pig)
# Experiment: NVS_GPCR_p5HT2C: NovaScreen (NVS) G Protein-Coupled Receptor Assay for pig Serotonin, 5-Hydroxytryptamine Receptor 2C (5HT2C) (AID 2283288)
# Method in brief: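 Pig choroid plexus membranes; radioligand competitive binding, filter-based scintillation counting, read 1 h after dosing. Primary screen in duplicate at 25 uM; actives then run as concentration series; loss of signal versus DMSO baseline.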
SMILES,outcome,AC50
NC(=O)N1C(=O)C(C(=O)c2cc(Cl)cs2)c2cc(F)c(Cl)cc21 (stereo unspecified),inactive,–
c1ccc2n[nH]nc2c1,inactive,–
Fc1ccccc1[C@@H](F)COC1CCC(Nc2ncnc3[nH]ncc23)CC1 (stereo partly specified),–,active: 7.93 µM
CCCCN1C(=O)[C@@H]([C@H](O)C2CCCCC2)NC(=O)C12CCN(Cc1ccc(Oc3ccc(C(=O)O)cc3)cc1)CC2,–,inconclusive: 25 µM
CCCCOC(=O)CC(CC(=O)OCCCC)(OC(C)=O)C(=O)OCCCC,–,inconclusive: 0.234 µM

# Target: human Opioid Receptor Mu (Opiate Mu), OPRM1 (gene 4988) (UniProt P35372)
# Experiment: NVS_GPCR_hOpiate_mu: NovaScreen (NVS) G Protein-Coupled Receptor Assay for human Opioid Receptor Mu (Opiate Mu) (AID 2283290);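 also: hits lower bound tracer signal versus DMSO meaning displacement of the ligand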
# Method in brief: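 CHO-derived receptor protein, cell-free; radioligand displacement, filtration + scintillation counting, read at 2.5 h. DMSO = negative control/baseline. Primary: 25 uM single conc, duplicate; secondary: concentration series.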
SMILES,AC50,outcome
CSc1nnc(C(C)(C)C)c(=O)[nH]1,inconclusive: 25 µM,–
CCOC(=O)CN,inconclusive: 1.76 µM,–
CCc1nn(C2CCCCC2)c2cc(C3(C#N)CCC(C(=O)O)CC3)ccc12 (stereo unspecified),inconclusive: 0.0273 µM,–
CC(C)CC(C)CC(O)CC(C)C (stereo unspecified),inconclusive: 25 µM,–
CCCCN1C(=O)[C@@H]([C@H](O)C2CCCCC2)NC(=O)C12CCN(Cc1ccc(Oc3ccc(C(=O)O)cc3)cc1)CC2,inconclusive: 25 µM,–
COc1cc(-c2nc(NC(=O)c3cc4cc(C)cc(C)c4n3CC(=O)O)sc2CCC2CCCCC2)c(OC)cc1Cl,inconclusive: 0.339 µM,–
Cc1ccc2sc3cccc(C)c3c2c1,–,inactive
O=C(Cl)c1ccc(Cl)cc1Cl,inconclusive: 4.86 µM,–
CCCCCCCCCCCCCCCCCC[N+](C)(C)C,active: 3.4 µM,–
CC=Cc1ccc(O)c(OC)c1,–,inactive
COCCc1ccc(OCC(O)CNC(C)C)cc1 (stereo unspecified),inconclusive: 6.54 µM,–

# Full records, quoted from the list. Order of values: AC50	outcome
# CSc1nnc(C(C)(C)C)c(=O)[nH]1 as listed: inconclusive: 25 µM	–
# CCCCN1C(=O)[C@@H]([C@H](O)C2CCCCC2)NC(=O)C12CCN(Cc1ccc(Oc3ccc(C(=O)O)cc3)cc1)CC2 as listed: inconclusive: 25 µM	–

# System: guinea pig Atrionatriuretic Peptide Receptor A (ANPA), gene 100135578
# Experiment: NVS_GPCR_gANPA: NovaScreen (NVS) G Protein-Coupled Receptor Assay for guinea pig Atrionatriuretic Peptide Receptor A (ANPA) (AID 2283291)
# Method in brief: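 Radioligand binding to guinea pig cerebellar membranes was measured after 1 h by filter-based scintillation counting. Chemicals were tested in duplicate at 25 uM, with hits run in concentration-response to a maximum of 50 uM. Binding loss was fitted against DMSO.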
SMILES,AC50,outcome
O=C(Oc1ccccc1)c1cccc(C(=O)Oc2ccccc2)c1,inconclusive: 26.1 µM,–
O=S1(=O)CCCO1,inconclusive: 25 µM,–
Clc1cc(Cl)c(Cl)cc1Cl,–,inactive
